Data taken from PMC10937712, “Natural variation in OsMYB8 confers diurnal floret opening time divergence between indica and japonica subspecies”.

Each sequence was assayed against T1, OsMYB8 (UniProt A0A0P0V5Q1) (assay: EMSA). Details: Beyotime chemiluminescent EMSA kit binding buffer (composition, salt, pH not stated), 20 min, room temperature, 5% native PAGE; 5x and 20x cold competitor; recombinant protein; protein details: N-terminal GST (pGEX-4T1); label: biotin.
T1 sequence (looked up, limits assumed): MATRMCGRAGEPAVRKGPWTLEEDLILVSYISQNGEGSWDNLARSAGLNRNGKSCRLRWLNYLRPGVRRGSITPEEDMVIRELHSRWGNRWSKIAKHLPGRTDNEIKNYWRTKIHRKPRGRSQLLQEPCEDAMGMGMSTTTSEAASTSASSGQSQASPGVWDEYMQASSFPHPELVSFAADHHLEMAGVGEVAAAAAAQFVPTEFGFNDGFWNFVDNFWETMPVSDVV

Binding result, binds:
CGGCGCGACGCACACGCACGCAAACCAAATCTTTTCGGACCAACTCCTCC (double strand) [TTTGGT-probe], AGAGCAGTACTGTAGTTGGGTACGCGGAGCAAGACGATGAGTTAGGCCGG (double strand) [TTAGGC-probe], AGTTAGGTACGTTTTCTGGAGTTACATGTTTAGCCATTTAGGTACGTTTTTTAGGTG (double strand) [TTAGGT-probe]

Same assay, conditions: binding largely abolished; Beyotime chemiluminescent EMSA kit binding buffer (composition, salt, pH not stated), 20 min, room temperature, 5% native PAGE; 5x and 20x cold competitor; recombinant protein; protein details: N-terminal GST (pGEX-4T1); label: biotin

Binding result, binds more weakly:
AGAGCAGTACTGTAGTTGGGTACGCGGAGCAAGACGATGAGTTAAACCGG (double strand) [TTAAAC-mprobe], AGTTAAATACGTTTTCTGGAGTTACATGTTTAGCCATTTAAATACGTTTTTTAAATG (double strand) [TTAAAT-mprobe], CGGCGCGACGCACACGCACGCAAATTAAATCTTTTCGGACCAACTCCTCC (double strand) [TTTAAT-mprobe]

For at least one entry, the source does not settle the construct or the ends of the probe. Weaker means in comparison with the reference protein, sequence or condition of that experiment. At least one verdict was read from the data and is not stated in words by the source. Where a protein sequence is shown, tags need not be part of it.
